The other results are listed elsewhere or left out.
Experiments:
Assay in all cases: log2 fold change, soluble protein after heating vs DMSO (PISA); higher = thermal stabilisation; K562 cells, 10 uM, 30 min; active = over 0.2 and 3.5 SD of the protein, either way, in both replicates (recomputed)
[1] = compound: COC1=CC=C(C=C1)CN2C=CC3=C2C=C(C=C3)C(=O)NO
Procedure, shortened: (§1)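 Values are thermal stability changes relative to control samples and are taken from duplicates. They are stated as log2 fold changes. Before quantification by TMTpro 16plex LC-MS/MS with equalised channel sums, K562 cells at 2×10^6 cells/mL were treated with 10 μM compound for 30 min, heated in aliquots for 3 min across 48°C-58°C, pooled, extracted in PBS with 0.5% NP-40 at 4°C, and centrifuged at 21,000xg for 90 min to give the soluble supernatant.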

Chains of the proteins cited; added tags and fusions are not shown. Lines headed by an entry give the natural chain unless they say otherwise; changes in a name come on top.
UniProt Q8TEV9: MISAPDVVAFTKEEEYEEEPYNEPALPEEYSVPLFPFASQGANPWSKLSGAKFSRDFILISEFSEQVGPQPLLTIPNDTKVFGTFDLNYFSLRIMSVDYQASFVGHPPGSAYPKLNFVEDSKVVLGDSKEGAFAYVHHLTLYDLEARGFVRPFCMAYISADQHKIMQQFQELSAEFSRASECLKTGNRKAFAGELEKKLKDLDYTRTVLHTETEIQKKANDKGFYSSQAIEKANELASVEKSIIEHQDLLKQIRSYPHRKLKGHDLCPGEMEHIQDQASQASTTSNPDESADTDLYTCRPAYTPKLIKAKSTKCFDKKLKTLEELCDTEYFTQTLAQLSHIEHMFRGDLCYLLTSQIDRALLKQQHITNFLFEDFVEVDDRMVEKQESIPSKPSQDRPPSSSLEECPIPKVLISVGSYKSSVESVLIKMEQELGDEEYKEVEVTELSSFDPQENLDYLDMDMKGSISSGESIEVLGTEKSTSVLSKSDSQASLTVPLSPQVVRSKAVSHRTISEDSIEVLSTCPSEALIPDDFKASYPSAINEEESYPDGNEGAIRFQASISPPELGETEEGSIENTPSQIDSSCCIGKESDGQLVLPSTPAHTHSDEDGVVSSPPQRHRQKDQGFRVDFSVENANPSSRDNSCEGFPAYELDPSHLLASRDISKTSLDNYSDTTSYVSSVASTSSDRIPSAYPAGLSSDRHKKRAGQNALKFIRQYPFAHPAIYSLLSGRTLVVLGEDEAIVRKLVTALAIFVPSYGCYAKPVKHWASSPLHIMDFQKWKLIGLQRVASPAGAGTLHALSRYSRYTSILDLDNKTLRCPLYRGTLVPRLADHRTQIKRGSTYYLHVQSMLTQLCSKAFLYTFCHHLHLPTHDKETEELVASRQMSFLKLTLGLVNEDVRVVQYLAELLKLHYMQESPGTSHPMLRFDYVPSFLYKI
UniProt P09234, whole entry, looked up: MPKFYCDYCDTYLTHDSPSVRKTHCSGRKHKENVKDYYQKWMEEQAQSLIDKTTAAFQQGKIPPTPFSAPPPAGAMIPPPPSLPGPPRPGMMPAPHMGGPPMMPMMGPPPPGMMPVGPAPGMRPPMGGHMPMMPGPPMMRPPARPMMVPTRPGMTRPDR
UniProt Q9Y5X2: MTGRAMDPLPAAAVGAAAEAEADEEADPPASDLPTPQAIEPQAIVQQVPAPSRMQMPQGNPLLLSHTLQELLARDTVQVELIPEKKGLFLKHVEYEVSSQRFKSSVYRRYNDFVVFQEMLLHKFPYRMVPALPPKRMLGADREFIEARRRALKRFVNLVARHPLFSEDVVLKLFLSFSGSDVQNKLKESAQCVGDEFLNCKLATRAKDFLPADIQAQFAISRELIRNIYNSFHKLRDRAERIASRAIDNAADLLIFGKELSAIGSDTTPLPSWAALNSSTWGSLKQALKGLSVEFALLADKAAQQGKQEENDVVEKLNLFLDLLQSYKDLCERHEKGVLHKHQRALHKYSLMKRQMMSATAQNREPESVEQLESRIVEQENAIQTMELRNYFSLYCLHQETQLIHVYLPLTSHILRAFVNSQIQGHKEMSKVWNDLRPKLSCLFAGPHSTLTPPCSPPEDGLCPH
UniProt P52788: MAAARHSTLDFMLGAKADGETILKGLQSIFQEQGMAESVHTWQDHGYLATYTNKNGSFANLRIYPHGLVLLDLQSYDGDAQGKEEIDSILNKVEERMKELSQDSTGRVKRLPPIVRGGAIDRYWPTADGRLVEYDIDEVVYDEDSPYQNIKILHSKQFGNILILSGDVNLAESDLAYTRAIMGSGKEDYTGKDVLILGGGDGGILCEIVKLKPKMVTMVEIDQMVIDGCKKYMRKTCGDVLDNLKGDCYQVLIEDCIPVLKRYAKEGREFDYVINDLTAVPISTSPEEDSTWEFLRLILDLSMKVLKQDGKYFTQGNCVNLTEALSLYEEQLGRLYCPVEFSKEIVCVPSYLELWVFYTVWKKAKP
UniProt Q9NTJ3, whole entry, looked up: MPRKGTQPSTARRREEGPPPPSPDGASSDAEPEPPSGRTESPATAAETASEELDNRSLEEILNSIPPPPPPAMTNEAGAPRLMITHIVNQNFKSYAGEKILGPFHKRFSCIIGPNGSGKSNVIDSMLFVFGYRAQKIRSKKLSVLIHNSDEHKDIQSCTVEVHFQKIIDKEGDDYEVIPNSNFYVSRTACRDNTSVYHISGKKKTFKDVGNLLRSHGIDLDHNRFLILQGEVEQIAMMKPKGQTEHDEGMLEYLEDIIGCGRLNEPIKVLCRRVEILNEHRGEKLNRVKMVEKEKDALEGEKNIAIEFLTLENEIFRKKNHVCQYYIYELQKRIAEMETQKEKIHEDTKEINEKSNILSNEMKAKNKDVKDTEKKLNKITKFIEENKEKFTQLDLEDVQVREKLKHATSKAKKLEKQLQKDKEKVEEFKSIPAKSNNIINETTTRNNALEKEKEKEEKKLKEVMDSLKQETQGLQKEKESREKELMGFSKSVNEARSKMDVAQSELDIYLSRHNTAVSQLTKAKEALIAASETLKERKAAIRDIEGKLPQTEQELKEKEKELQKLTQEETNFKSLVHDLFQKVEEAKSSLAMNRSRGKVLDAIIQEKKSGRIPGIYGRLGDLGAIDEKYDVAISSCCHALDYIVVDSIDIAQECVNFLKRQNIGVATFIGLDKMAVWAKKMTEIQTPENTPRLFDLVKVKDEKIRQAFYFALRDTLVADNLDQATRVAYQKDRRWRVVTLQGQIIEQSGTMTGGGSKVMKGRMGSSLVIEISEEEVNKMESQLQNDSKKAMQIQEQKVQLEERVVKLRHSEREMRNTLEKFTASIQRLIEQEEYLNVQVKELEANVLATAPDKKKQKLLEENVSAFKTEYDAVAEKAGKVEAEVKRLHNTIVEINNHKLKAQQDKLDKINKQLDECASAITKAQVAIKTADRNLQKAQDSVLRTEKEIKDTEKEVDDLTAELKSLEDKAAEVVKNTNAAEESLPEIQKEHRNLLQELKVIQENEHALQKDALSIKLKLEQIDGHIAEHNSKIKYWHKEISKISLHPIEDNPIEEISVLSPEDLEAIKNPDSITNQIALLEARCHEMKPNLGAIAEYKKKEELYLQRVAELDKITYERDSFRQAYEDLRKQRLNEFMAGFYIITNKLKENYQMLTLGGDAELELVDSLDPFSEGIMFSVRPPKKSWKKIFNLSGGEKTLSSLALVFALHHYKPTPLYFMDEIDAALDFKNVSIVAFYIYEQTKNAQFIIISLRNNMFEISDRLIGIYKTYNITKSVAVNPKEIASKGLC
UniProt O76070, whole entry, looked up: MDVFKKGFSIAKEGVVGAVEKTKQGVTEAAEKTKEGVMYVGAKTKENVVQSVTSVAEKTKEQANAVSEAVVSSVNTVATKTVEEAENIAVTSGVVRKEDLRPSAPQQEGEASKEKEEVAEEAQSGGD
UniProt O95721: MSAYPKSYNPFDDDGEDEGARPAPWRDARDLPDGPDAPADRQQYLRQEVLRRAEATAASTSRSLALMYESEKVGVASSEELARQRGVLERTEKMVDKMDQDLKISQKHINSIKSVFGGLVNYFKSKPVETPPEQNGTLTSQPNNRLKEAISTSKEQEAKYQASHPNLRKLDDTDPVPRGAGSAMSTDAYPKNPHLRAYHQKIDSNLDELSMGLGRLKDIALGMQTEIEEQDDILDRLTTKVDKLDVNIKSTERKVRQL
UniProt P04179: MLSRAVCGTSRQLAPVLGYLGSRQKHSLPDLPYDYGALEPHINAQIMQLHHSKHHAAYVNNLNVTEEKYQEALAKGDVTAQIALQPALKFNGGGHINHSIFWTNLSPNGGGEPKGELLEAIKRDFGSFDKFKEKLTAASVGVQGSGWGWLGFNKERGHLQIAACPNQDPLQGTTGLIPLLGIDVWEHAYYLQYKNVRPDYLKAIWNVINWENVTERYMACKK
UniProt Q7KZF4: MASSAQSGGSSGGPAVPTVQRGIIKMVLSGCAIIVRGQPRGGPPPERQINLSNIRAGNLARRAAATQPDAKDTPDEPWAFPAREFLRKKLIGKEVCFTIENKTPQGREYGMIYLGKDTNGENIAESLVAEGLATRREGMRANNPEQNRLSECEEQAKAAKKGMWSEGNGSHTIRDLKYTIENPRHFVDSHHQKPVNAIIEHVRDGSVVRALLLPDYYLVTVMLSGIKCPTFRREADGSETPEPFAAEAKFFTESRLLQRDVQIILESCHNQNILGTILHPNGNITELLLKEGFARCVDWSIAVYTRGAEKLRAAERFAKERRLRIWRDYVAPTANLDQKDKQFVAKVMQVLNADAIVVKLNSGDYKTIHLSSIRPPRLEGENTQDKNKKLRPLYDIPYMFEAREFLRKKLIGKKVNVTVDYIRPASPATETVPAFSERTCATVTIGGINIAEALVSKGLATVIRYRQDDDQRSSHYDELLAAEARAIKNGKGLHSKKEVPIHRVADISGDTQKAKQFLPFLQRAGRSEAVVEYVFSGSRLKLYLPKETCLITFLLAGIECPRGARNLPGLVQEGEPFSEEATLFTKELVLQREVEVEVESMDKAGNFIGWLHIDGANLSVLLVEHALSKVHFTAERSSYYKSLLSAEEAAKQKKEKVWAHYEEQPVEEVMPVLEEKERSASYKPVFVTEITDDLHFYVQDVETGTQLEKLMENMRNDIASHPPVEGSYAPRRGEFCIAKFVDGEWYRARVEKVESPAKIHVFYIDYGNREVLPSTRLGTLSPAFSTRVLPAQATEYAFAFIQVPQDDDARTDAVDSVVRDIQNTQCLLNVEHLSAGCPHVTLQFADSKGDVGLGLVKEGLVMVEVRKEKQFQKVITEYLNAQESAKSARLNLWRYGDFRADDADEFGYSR
UniProt O00161: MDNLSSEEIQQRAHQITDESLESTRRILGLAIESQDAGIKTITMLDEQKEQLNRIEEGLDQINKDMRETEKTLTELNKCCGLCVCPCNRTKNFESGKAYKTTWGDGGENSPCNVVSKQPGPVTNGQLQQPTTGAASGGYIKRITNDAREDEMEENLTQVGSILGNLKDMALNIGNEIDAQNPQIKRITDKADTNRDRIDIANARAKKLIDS
UniProt O14508, whole entry, looked up: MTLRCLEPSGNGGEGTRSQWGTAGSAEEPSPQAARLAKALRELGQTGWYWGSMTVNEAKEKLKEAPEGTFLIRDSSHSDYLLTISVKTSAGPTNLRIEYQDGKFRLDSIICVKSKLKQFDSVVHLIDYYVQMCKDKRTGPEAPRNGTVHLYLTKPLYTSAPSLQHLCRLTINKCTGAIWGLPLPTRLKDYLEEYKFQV
UniProt O95347, whole entry, looked up: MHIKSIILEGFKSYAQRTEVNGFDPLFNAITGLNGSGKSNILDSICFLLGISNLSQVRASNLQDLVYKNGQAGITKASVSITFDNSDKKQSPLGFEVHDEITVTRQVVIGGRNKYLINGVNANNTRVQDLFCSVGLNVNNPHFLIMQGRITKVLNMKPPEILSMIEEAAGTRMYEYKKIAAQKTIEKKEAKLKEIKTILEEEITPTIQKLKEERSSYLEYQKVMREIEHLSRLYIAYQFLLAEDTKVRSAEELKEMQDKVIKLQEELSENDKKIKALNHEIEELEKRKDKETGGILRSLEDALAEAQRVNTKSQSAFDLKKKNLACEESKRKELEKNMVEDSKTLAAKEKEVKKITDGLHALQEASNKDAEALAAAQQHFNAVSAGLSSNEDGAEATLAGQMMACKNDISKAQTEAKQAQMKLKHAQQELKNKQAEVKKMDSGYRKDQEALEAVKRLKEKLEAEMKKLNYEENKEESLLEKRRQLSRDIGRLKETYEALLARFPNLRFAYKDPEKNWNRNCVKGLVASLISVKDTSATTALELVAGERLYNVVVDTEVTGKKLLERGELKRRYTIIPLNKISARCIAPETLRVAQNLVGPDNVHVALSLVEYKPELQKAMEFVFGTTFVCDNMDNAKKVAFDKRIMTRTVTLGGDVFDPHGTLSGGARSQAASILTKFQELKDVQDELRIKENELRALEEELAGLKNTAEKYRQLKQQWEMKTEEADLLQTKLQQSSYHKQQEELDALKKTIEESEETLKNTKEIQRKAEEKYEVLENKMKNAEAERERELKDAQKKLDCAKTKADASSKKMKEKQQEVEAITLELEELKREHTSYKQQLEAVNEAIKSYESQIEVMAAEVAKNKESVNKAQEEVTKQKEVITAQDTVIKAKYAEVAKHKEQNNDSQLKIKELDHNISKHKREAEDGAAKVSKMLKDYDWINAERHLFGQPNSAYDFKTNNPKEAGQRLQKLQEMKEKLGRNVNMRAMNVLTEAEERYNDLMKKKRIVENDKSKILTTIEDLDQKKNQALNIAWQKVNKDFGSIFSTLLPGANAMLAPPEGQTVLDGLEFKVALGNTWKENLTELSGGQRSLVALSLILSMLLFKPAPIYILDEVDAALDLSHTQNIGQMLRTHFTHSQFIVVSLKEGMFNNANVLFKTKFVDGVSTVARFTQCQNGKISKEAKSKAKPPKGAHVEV
UniProt Q15506: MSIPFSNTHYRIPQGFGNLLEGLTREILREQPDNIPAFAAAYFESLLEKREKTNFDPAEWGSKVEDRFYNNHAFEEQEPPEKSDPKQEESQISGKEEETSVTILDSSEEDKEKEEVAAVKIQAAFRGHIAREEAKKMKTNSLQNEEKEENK

filanesib = compound: CON(C)C(=O)N1N=C(c2cc(F)ccc2F)S[C@@]1(CCCN)c1ccccc1 [filanesib]
Procedure, shortened: as §1

zotarolimus = compound: CO[C@H]1C[C@@H]2CC[C@@H](C)[C@@](O)(O2)C(=O)C(=O)N2CCCC[C@H]2C(=O)O[C@H]([C@H](C)C[C@@H]2CC[C@H](n3cnnn3)[C@H](OC)C2)CC(=O)[C@H](C)/C=C(\C)[C@@H](O)[C@@H](OC)C(=O)[C@H](C)C[C@H](C)/C=C/C=C/C=C/1C [zotarolimus]
Procedure, shortened: as §1

idasanutlin = compound: COc1cc(C(=O)O)ccc1NC(=O)[C@@H]1N[C@@H](CC(C)(C)C)[C@](C#N)(c2ccc(Cl)cc2F)[C@H]1c1cccc(Cl)c1F [idasanutlin]
Procedure, shortened: as §1

alisertib = compound: COc1cc(Nc2ncc3c(n2)-c2ccc(Cl)cc2C(c2c(F)cccc2OC)=NC3)ccc1C(=O)O [alisertib]
Procedure, shortened: as §1

[2] = compound: COc1cc2nc(-c3cc(F)ccc3O)nc(N[C@@H]3CNC[C@H]3C(C)(C)O)c2cc1OC
Procedure, shortened: as §1

gefitinib = compound: COc1cc2ncnc(Nc3ccc(F)c(Cl)c3)c2cc1OCCCN1CCOCC1 [gefitinib]
Procedure, shortened: as §1

[3] = compound: COc1cccc2cc(-c3nc([C@H]4CC[C@H](C(=O)O)CC4)n4ncnc(N)c34)[nH]c12
Procedure, shortened: as §1

lapatinib = compound: CS(=O)(=O)CCNCc1ccc(-c2ccc3ncnc(Nc4ccc(OCc5cccc(F)c5)c(Cl)c4)c3c2)o1 [lapatinib]
Procedure, shortened: as §1

pictilisib = compound: CS(=O)(=O)N1CCN(Cc2cc3nc(-c4cccc5[nH]ncc45)nc(N4CCOCC4)c3s2)CC1 [pictilisib]
Procedure, shortened: as §1

[4] = compound: CS(=O)(=O)c1ccc(-c2cnc(N)c(C(=O)Nc3ccccc3)n2)cc1
Procedure, shortened: as §1

crizotinib = compound: C[C@@H](Oc1cc(-c2cnn(C3CCNCC3)c2)cnc1N)c1c(Cl)ccc(F)c1Cl [crizotinib]
Procedure, shortened: as §1

[5] = compound: C[C@@H]1COCCN1C2=NC(=NC(=C2)C3(CC3)S(=O)(=O)C)C4=C5C=CNC5=CC=C4
Procedure, shortened: as §1

[6] = compound: C[C@H](C1=CC=C(C=C1)C(=O)NC2=C3C=CNC3=NC=C2)N
Procedure, shortened: as §1

duvelisib = compound: C[C@H](Nc1ncnc2nc[nH]c12)c1cc2cccc(Cl)c2c(=O)n1-c1ccccc1 [duvelisib]
Procedure, shortened: as §1

gandotinib = compound: Cc1cc(Nc2cc(CN3CCOCC3)c3nc(C)c(Cc4ccc(Cl)cc4F)n3n2)n[nH]1 [gandotinib]
Procedure, shortened: as §1

tozasertib = compound: Cc1cc(Nc2cc(N3CCN(C)CC3)nc(Sc3ccc(NC(=O)C4CC4)cc3)n2)n[nH]1 [tozasertib]
Procedure, shortened: as §1

[7] = compound: Cc1cc(SCc2sc(-c3ccc(C(F)(F)F)cc3)nc2C)ccc1OCC(=O)O
Procedure, shortened: as §1

doramapimod = compound: Cc1ccc(-n2nc(C(C)(C)C)cc2NC(=O)Nc2ccc(OCCN3CCOCC3)c3ccccc23)cc1 [doramapimod]
Procedure, shortened: as §1

ispinesib = compound: Cc1ccc(C(=O)N(CCCN)[C@@H](c2nc3cc(Cl)ccc3c(=O)n2Cc2ccccc2)C(C)C)cc1 [ispinesib]
Procedure, shortened: as §1

Measured: log2 fold change

SMCR8 (UniProt Q8TEV9)
inactive: [1] -0.085 | filanesib -0.003 | zotarolimus 0.013 | idasanutlin 0.07 | alisertib 0.006 | [2] 0.006 | gefitinib -0.017 | [3] 0.057 | lapatinib -0.07 | pictilisib 0.028 | [4] -0.024 | crizotinib -0.007 | [5] -0.033 | [6] -0.027 | duvelisib -0.084 | gandotinib 0.02 | tozasertib -0.215 | [7] 0.058 | doramapimod 0.013

SNRPC (UniProt P09234)
inactive: [1] 0 | filanesib 0.033 | zotarolimus -0.005 | idasanutlin 0.048 | alisertib -0.082 | [2] -0.13 | gefitinib -0.009 | [3] 0.008 | lapatinib 0.003 | pictilisib -0.033 | [4] -0.092 | crizotinib 0.038 | [5] -0.043 | [6] -0.024 | duvelisib -0.042 | gandotinib 0.105 | tozasertib -0.003 | [7] -0.072 | doramapimod 0.001 | ispinesib 0.11

SNX8 (UniProt Q9Y5X2)
inactive: [1] -0.021 | filanesib 0.012 | zotarolimus -0.01 | idasanutlin 0.025 | alisertib -0.054 | [2] -0.002 | gefitinib 0 | [3] 0.093 | lapatinib 0.034 | pictilisib 0.02 | [4] -0.019 | crizotinib -0.014 | [5] 0.048 | [6] -0.172 | duvelisib -0.001 | gandotinib -0.011 | tozasertib -0.014 | [7] -0.013 | doramapimod -0.002 | ispinesib -0.051

SMS (UniProt P52788)
inactive: [1] 0.049 | filanesib -0.038 | zotarolimus 0.002 | idasanutlin -0.041 | alisertib -0.039 | [2] 0.028 | gefitinib 0.005 | [3] 0.06 | lapatinib -0.03 | pictilisib 0.037 | [4] 0.024 | crizotinib 0.012 | [5] 0.092 | [6] -0.056 | duvelisib 0.045 | gandotinib 0.01 | tozasertib -0.033 | [7] -0.04 | doramapimod -0.083 | ispinesib 0.041

SNRNP200 (UniProt O75643)
inactive: [1] -0.024 | filanesib 0.122 | zotarolimus -0.021 | idasanutlin 0.038 | alisertib -0.059 | [2] 0.091 | gefitinib -0.045 | [3] 0.002 | lapatinib 0.08 | pictilisib 0.073 | [4] 0.019 | crizotinib 0.019 | [5] -0.027 | [6] 0.089 | duvelisib 0.008 | gandotinib 0.011 | tozasertib 0.021 | [7] -0.012 | doramapimod 0.052 | ispinesib 0.146

SMC4 (UniProt Q9NTJ3)
inactive: [1] 0 | filanesib 0.028 | zotarolimus 0.05 | idasanutlin -0.034 | alisertib -0.01 | [2] 0.101 | gefitinib -0.015 | [3] -0.067 | lapatinib 0 | pictilisib 0.015 | [4] 0.054 | crizotinib -0.04 | [5] -0.015 | [6] 0.042 | duvelisib -0.013 | gandotinib -0.07 | tozasertib 0.045 | [7] 0.075 | doramapimod -0.035 | ispinesib -0.002

Two entries drawn at random from those above, as already listed:
SNRPC (UniProt P09234)
inactive: [1] 0 | filanesib 0.033 | zotarolimus -0.005 | idasanutlin 0.048 | alisertib -0.082 | [2] -0.13 | gefitinib -0.009 | [3] 0.008 | lapatinib 0.003 | pictilisib -0.033 | [4] -0.092 | crizotinib 0.038 | [5] -0.043 | [6] -0.024 | duvelisib -0.042 | gandotinib 0.105 | tozasertib -0.003 | [7] -0.072 | doramapimod 0.001 | ispinesib 0.11

SNX8 (UniProt Q9Y5X2)
inactive: [1] -0.021 | filanesib 0.012 | zotarolimus -0.01 | idasanutlin 0.025 | alisertib -0.054 | [2] -0.002 | gefitinib 0 | [3] 0.093 | lapatinib 0.034 | pictilisib 0.02 | [4] -0.019 | crizotinib -0.014 | [5] 0.048 | [6] -0.172 | duvelisib -0.001 | gandotinib -0.011 | tozasertib -0.014 | [7] -0.013 | doramapimod -0.002 | ispinesib -0.051

Later entries.

SNCG (UniProt O76070)
inactive: [1] -0.008 | filanesib -0.049 | zotarolimus -0.034 | idasanutlin -0.021 | alisertib -0.06 | [2] -0.037 | gefitinib -0.012 | [3] 0.022 | lapatinib 0.013 | pictilisib -0.006 | [4] 0 | crizotinib 0.041 | [5] 0.084 | [6] -0.069 | duvelisib 0.071 | gandotinib 0.004 | tozasertib -0.028 | [7] -0.031 | doramapimod -0.014 | ispinesib -0.037

SNAP29 (UniProt O95721)
inactive: [1] 0.03 | filanesib -0.043 | zotarolimus -0.075 | idasanutlin -0.003 | alisertib -0.074 | [2] -0.023 | gefitinib -0.021 | [3] 0 | lapatinib 0.043 | pictilisib 0.06 | [4] -0.046 | crizotinib -0.024 | [5] -0.012 | [6] 0 | duvelisib 0.022 | gandotinib -0.008 | tozasertib -0.022 | [7] -0.042 | doramapimod -0.011 | ispinesib -0.024

SOD2 (UniProt P04179)
inactive: [1] 0.041 | filanesib -0.023 | zotarolimus -0.019 | idasanutlin 0.017 | alisertib 0.022 | [2] -0.003 | gefitinib 0 | [3] -0.007 | lapatinib -0.024 | pictilisib -0.059 | [4] 0.009 | crizotinib 0.033 | [5] 0.112 | [6] -0.07 | duvelisib 0.032 | gandotinib 0.016 | tozasertib -0.002 | [7] -0.069 | doramapimod -0.126 | ispinesib 0.061

SNCA (UniProt P37840)
inactive: [1] -0.006 | filanesib -0.04 | zotarolimus 0.014 | idasanutlin -0.052 | alisertib -0.08 | [2] 0.052 | gefitinib 0.014 | [3] 0.041 | lapatinib 0.002 | pictilisib -0.029 | [4] 0.024 | crizotinib 0.048 | [5] 0.052 | [6] -0.014 | duvelisib 0.041 | gandotinib 0.006 | tozasertib -0.063 | [7] -0.071 | doramapimod -0.036 | ispinesib -0.014

SORD (UniProt Q00796)
inactive: [1] -0.001 | filanesib -0.001 | zotarolimus -0.011 | idasanutlin -0.004 | alisertib -0.062 | [2] 0.033 | gefitinib 0.001 | [3] 0.038 | lapatinib -0.028 | pictilisib 0.066 | [4] 0.035 | crizotinib 0.031 | [5] 0.047 | [6] -0.021 | duvelisib 0.017 | gandotinib 0.007 | tozasertib -0.022 | [7] -0.052 | doramapimod -0.05 | ispinesib 0.051

SND1 (UniProt Q7KZF4)
inactive: [1] -0.102 | filanesib 0.723 | zotarolimus 0.119 | idasanutlin 0.4 | alisertib -0.116 | [2] -0.012 | gefitinib -0.012 | [3] -0.519 | lapatinib 0.163 | pictilisib -0.195 | [4] 0.107 | crizotinib -0.101 | [5] -0.674 | [6] 0.713 | duvelisib -0.197 | gandotinib 0.319 | tozasertib -0.003 | [7] 0.109 | doramapimod 0.391 | ispinesib -0.478

SNAP23 (UniProt O00161)
inactive: [1] -0.075 | filanesib 0.008 | zotarolimus -0.044 | idasanutlin -0.001 | alisertib -0.088 | [2] 0.006 | gefitinib 0.001 | [3] 0.012 | lapatinib -0.003 | pictilisib 0.039 | [4] 0.032 | crizotinib 0.031 | [5] 0.032 | [6] 0.01 | duvelisib 0.01 | gandotinib 0.009 | tozasertib -0.014 | [7] -0.047 | doramapimod 0.007 | ispinesib 0.006

SOCS2 (UniProt O14508)
inactive: [1] -0.076 | filanesib 0.031 | zotarolimus -0.008 | idasanutlin -0.064 | alisertib 0.035 | [2] 0.074 | gefitinib -0.01 | [3] 0.044 | lapatinib -0.083 | pictilisib 0.063 | [4] 0.083 | crizotinib 0.032 | [5] 0.06 | [6] 0.026 | duvelisib 0.132 | gandotinib 0.044 | tozasertib 0.005 | [7] 0.022 | doramapimod 0.142 | ispinesib 0.065

SMC2 (UniProt O95347)
inactive: [1] 0.022 | filanesib 0.015 | zotarolimus 0.016 | idasanutlin -0.024 | alisertib -0.005 | [2] 0.085 | gefitinib 0.019 | [3] -0.06 | lapatinib 0.019 | pictilisib 0.045 | [4] 0.019 | crizotinib -0.004 | [5] -0.016 | [6] 0.055 | duvelisib 0.01 | gandotinib -0.035 | tozasertib 0.032 | [7] 0.044 | doramapimod -0.012 | ispinesib -0.03

SPA17 (UniProt Q15506)
inactive: [1] 0.038 | filanesib 0.018 | zotarolimus -0.053 | idasanutlin 0.067 | alisertib -0.293 | [2] -0.013 | gefitinib -0.058 | [3] 0.076 | lapatinib -0.036 | pictilisib 0.131 | [4] 0.118 | crizotinib 0.031 | [5] -0.126 | [6] 0.033 | duvelisib 0.018 | gandotinib -0.136 | tozasertib 0.027 | [7] -0.053 | doramapimod -0.038 | ispinesib -0.084
